This passage reports binding results from article PMC9648840.

Amino acid sequences for entries named in this document (tags omitted).
UniProt O02799: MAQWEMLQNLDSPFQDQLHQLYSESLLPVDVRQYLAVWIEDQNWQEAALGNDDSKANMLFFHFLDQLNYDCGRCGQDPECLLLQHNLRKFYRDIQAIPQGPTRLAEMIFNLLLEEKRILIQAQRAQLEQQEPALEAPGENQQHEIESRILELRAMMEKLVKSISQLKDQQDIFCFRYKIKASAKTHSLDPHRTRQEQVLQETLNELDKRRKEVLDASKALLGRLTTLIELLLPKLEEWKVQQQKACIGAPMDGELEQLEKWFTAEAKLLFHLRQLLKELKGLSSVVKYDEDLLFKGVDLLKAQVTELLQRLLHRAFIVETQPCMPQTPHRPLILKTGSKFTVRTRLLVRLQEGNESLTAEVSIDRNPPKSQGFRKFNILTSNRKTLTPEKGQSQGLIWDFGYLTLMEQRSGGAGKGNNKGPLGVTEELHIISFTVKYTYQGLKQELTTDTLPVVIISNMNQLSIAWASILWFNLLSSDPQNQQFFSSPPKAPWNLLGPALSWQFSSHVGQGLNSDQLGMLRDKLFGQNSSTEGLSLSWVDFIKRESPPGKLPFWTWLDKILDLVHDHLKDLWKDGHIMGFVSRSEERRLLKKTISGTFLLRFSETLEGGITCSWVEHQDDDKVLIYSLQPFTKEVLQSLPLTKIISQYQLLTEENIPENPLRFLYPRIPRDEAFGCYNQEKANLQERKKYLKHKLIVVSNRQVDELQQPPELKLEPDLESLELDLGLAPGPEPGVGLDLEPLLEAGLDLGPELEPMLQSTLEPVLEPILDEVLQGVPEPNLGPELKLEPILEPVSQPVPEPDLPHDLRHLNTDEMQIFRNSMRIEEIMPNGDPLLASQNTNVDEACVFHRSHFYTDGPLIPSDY

Results are given in words; binding and its absence hold for the method and conditions named. Binding seen in cells or lysates may run through a third protein. Some results given as binding are weak or reduced against the parent protein; the word gives no strength. Sequences can lack the tags named with a protein.

This assay concerns the target T1, HA-STAT1 (UniProt Q764M5).
T1 sequence: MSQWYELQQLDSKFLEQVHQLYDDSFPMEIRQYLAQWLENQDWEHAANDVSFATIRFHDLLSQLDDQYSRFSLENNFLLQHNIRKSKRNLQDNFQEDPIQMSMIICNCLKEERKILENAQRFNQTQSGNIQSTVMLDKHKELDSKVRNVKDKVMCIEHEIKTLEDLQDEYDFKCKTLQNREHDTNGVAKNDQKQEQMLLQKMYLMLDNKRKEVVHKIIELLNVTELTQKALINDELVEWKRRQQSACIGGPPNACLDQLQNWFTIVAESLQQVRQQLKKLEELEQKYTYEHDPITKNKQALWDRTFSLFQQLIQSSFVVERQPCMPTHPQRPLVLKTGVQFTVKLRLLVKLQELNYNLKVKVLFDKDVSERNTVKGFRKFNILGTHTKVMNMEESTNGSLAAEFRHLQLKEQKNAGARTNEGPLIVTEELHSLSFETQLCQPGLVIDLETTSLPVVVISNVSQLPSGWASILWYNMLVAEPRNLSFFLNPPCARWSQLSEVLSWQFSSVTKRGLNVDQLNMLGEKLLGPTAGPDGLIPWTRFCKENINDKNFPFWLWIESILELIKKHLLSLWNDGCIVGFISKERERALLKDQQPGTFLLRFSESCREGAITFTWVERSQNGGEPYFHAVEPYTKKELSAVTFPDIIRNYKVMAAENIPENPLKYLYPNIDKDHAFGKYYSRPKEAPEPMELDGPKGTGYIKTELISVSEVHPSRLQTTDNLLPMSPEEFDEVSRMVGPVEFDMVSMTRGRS
Briefly: co-IP.

Regarding Myc-STAT2 (from UniProt O02799 1-864), the binding entry is “binds”.
